## Results of single-concentration screens

The values are deposited in ChEMBL (CHEMBL3988442, “University of Dundee, Small-Polar-MMV Screening Library” (2021)).

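Growth of Mycobacterium tuberculosis over 4 days (cholesterol / DPPC medium with tyloxapol); the read-out is not stated. Tested at 50 µM. Higher reads as more growth inhibition (inferred: compounds with an IC50 in retests scored well above the rest). Size under these conditions: about 69,000 compounds, about 370 of them at 50% or above in at least one test.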

The filed quantity is “Percent Effect” (%).
How 0% and 100% were set is not recorded. Most values in the screen are low, and negative values occur.
Compounds were drawn at random from those tested, without regard to their results.
Two or more numbers in one place are separate tests of the same structure; such repeats can differ widely.

| # | Compound | Percent Effect |
|---|---|---|
| 1 | `CC(C)Cc1ncc2c(n1)CN(C(=O)Cn1c(=O)oc3ccccc31)C2` | -2.397% |
| 2 | `Cc1occc1C(=O)N1CCC2(CCN(Cc3nccs3)CC2)C1` | 7.525% |
| 3 | `COc1cc(CNC(=O)C(C)SC)cc(Br)c1OC` (centres unmarked) | 12.56% |
| 4 | `CN(C)S(=O)(=O)N1CCC(Cn2cccn2)CC1` | -13.47% |
| 5 | `CS(=O)(=O)c1ccc(C(=O)NCc2nc3cc(F)ccc3[nH]2)cc1` | 9.808% |
| 6 | `CC(C)=CCN1C[C@@H](C(=O)O)C[C@H](C(=O)Nc2ccc(C)nc2)C1` | -13.67% |
| 7 | `CCc1nc(CNC2CCN(S(C)(=O)=O)CC2)cs1` | -14.09% |
| 8 | `COc1ccc(C(=O)N(C)Cc2nnc3ccccn23)c(OC)c1OC` | 6.928% |
| 9 | `Cc1nc(CCNC(=O)C2CC(=O)N(C(C)(C)C)C2)sc1C` (centres unmarked) | -2.819% |
| 10 | `Cc1ccc(C2NC(=O)c3cc(C(C)C)sc3N2)cc1` (centres unmarked) | -2.727% |
| 11 | `O=C(C1CCCOC1)N1CCCc2ccccc21` (centres unmarked) | 10.03% |
| 12 | `Cc1cnn(CC2CN(Cc3nc(-c4ccccn4)no3)CCO2)c1` (centres unmarked) | -16.5% |
| 13 | `CCC(C)(CC(=O)OC)NCc1noc(C)n1` (centres unmarked) | 1.282% |
| 14 | `N#Cc1cc(NS(=O)(=O)c2ccc(C(=O)O)cc2F)ccc1F` | -9.349% |
| 15 | `O=c1n(CCn2cccc2)nc(C2CCNCC2)n1Cc1ccccc1` | -16.08% |
| 16 | `Cc1cccc(C)c1OC1CN(Cc2cnc(-c3ccco3)nc2)C1` | -10.12% |
| 17 | `COCCC(=O)N1CCCC1c1nc(C)c2c(n1)N(C)C(=O)CC2` (centres unmarked) | -2.152% and 14.71% |
| 18 | `COC(=O)N1CCCCC1C(=O)N1CCCN(c2ccnc(C)c2)CC1` (centres unmarked) | 5.364% |
| 19 | `Cc1cnc(C(=O)N2CCN(c3ncc4c(n3)CCOC4)CC2)cn1` | -3.54% and -3.874% |
| 20 | `O=C(Nc1ccccc1N1CCOC1=O)N1CCc2sccc2C1` | -19.61% |
| 21 | `Cc1cc(N2CCc3cncnc3C2)n2nc(C(F)(F)F)nc2n1` | -17.57% |
| 22 | `Cc1ccc(C(=O)NCCCN(C(C)C)S(C)(=O)=O)c(=O)[nH]1` | -14.24% |
| 23 | `O=C(C1CCCO1)N1CCC2(CC1)COCCN2CC1CC1` (centres unmarked) | -9.3% and -5.276% |
| 24 | `Cc1nc(N)sc1C(=O)N1Cc2ccccc2OC2(CCOCC2)C1` | -27.38% |
| 25 | `O=C(O)C(F)(F)F.[H][C@@]12OCCN(c3ncccn3)[C@@]1([H])CC[C@H]2OCC(=O)N(C)C` | -6.549% |
| 26 | `CC(C)n1cnnc1CN(C)C(=O)C1CCCN(C2CCN(C)CC2)C1` (centres unmarked) | 4.625% |
| 27 | `CCN1CCC(CNCc2cc(OC)ccc2OC)C1` (centres unmarked) | -14.6% and -0.5244% |
| 28 | `CC(C)Oc1ncccc1CNC(=O)Nc1ccccn1` | 10.57% |
| 29 | `Fc1cccc(-c2nc(CN3CCOC(Cn4cccn4)C3)co2)c1` (centres unmarked) | 10.88% |
| 30 | `Cc1ccc(NC(=O)c2cnc(N3CCN(C)CC3)nc2C)cc1C` | 1.494% |
| 31 | `COc1ccc(CNC(C)c2cnc3cc(C)nn3c2C)cc1` (centres unmarked) | -0.2319% |
| 32 | `O=C(O)C(F)(F)F.[H][C@@]12CCN(Cc3c(C)noc3C)C[C@]1([H])[C@H](C(=O)NCC1CC1)CCO2` | 2.586% |
| 33 | `COc1cccc(CNC(C)c2ccc(-n3ccnc3)cc2)c1OC.Cl` (centres unmarked) | 0.9012% |
| 34 | `OCC1CCCN1c1cc(NCCNc2cccnn2)ncn1` (centres unmarked) | -13.72% |
| 35 | `COc1ccccc1N1CCC(CNCc2ccc(C#N)cc2)C1` (centres unmarked) | -5.072% |
| 36 | `FC(F)(F)c1n[nH]c2c1CN(CCc1ccccn1)CC2` | 14.71% |
| 37 | `CN1CCC2(CC1)CN(C(=O)c1onc3ccccc13)CCCN2C` | -13.68% |
| 38 | `N#Cc1c(N)nc2c(c1C1CCOC1)CCc1cc(O)ccc1-2` (centres unmarked) | -17.97% |
| 39 | `Cc1ccc(-c2nc(CN3CCn4c(C)nnc4C3)cs2)o1` | -6.926% |
| 40 | `Cc1cc(CN2CCN(CC(O)C(C)(C)C)CC2)no1` (centres unmarked) | -1.684% |
| 41 | `CCc1nc(C)c(C(=O)NCCNc2ncccc2C#N)s1` | -44.93% |
| 42 | `CC(C)N(CC(N)=O)Cc1c(Cl)ccc2cccnc12` | 8.429% |
| 43 | `COCC(NC(=O)c1cccnc1)c1cccc(C(F)(F)F)c1` (centres unmarked) | -6.162% |
| 44 | `CN1C(=O)C(c2ccccc2)CC12CCN(CCN1CCCC1=O)CC2` (centres unmarked) | -12.56% |
| 45 | `CCc1ccc2c(C3CN(S(C)(=O)=O)C3)ncn2c1` | -27.14% |
| 46 | `O=C(Nc1cc(F)ccc1OCC1CCCO1)N1CCSCC1` (centres unmarked) | -5.886% |
| 47 | `O=C(O)C(F)(F)F.O=C(O)C(F)(F)F.O=C1CC2(CCN(Cc3cccnc3)C2)CN1c1cncnc1` (centres unmarked) | -27.78% and -24.57% |
| 48 | `Cc1ccnc2c1NC(=O)CN2C(=O)CCc1cccs1` | 24.8% |
| 49 | `Cc1c[nH]c(C2COCCN2C(=O)c2ccc(=O)[nH]n2)n1` (centres unmarked) | 7.494% and 10.16% |
| 50 | `CCOc1ccc(Cl)c(C(=O)N2CCCSCC2)n1` | -3.638% |
| 51 | `O=C(c1cncc(NCC2COc3ccccc3C2)n1)N1CCCC1` (centres unmarked) | -21.35% |
| 52 | `CCS(=O)(=O)CC(=O)NC(c1ccccc1)C1CCCCC1` (centres unmarked) | -6.189% |
| 53 | `COc1ccc(C)cc1CNCc1ccc(-n2nc(C)cc2C)nc1` | -17.7% |
| 54 | `CCN(Cc1ccco1)C(=O)NCC(C)N1CCc2sccc2C1` (centres unmarked) | -21.01% |
| 55 | `NCCc1n[nH]c(=O)n1-c1cccc2ccccc12` | -15.26% |
| 56 | `[H][C@@]12CCN(Cc3nc(C)cs3)C[C@@]1([H])O[C@@H](c1noc(C)n1)C2` | 1.285% |
| 57 | `O=C(O)C(F)(F)F.O=C(O)C(F)(F)F.O=C1COC2(CCN(Cc3ccncc3)CC2)CN1` | -13.57% |
| 58 | `O=C(O)C(F)(F)F.O=C(O)C(F)(F)F.c1cncc(-c2nnn3c2COCC(CNC2CCOCC2)C3)c1` (centres unmarked) | -15.53% |
| 59 | `NC(=O)CN(C(=O)Cc1ccc(C(F)(F)F)cc1)C1CCCC1` | -28% |
| 60 | `Cc1ncc(C)c(N2CCC(Cc3ccc(Cl)cc3)(C(=O)O)CC2)n1` | 3.333% |
| 61 | `CCC(C)(C)NC(=O)Cn1nnc(CN(C)C(=O)c2ccccc2)n1` | -22.22% |
| 62 | `O=C(c1ccc2c(c1)COC2)N1CCC(Nc2ccccc2)CC1` | 5.578% |
| 63 | `Cc1cnn(C(C)C2CC2)c1NC(=O)c1cnccn1` (centres unmarked) | -1.485% |
| 64 | `CSCC(=O)N1CCc2nc(C)nc(NCc3ccccc3)c2CC1` | -18.46% |
| 65 | `N#Cc1cccc(S(=O)(=O)NC(=O)CCOCC(F)(F)F)c1` | 14.05% |
| 66 | `CCN(C)C1COC2(CCN(C(=O)c3ccc4[nH]ccc4c3)CC2)C1` (centres unmarked) | 16.3% |
| 67 | `Cc1cc(NCCCOC(C)C)c2nncn2n1` | -18.25% |
| 68 | `NC(=O)c1cccc(CC2CCN(C(=O)CCCN3CCOCC3)C2)c1` (centres unmarked) | -6.519% |
| 69 | `CC(O)CNCc1c[nH]nc1-c1cc2ccccc2o1` (centres unmarked) | -23.99% |
| 70 | `Cc1nc(C(=O)N(C)CC2CC2)nn1-c1ccccc1C(C)C` | -10.98% |
| 71 | `CCOc1ncccc1NC(=O)N1CCc2ccccc2C1` | -5.471% |
| 72 | `Cn1cc(CN2CCCC3(CCN(C(=O)c4ccoc4)C3)C2)cn1` (centres unmarked) | -17% |

The first 8 entries again:

| Compound | Percent Effect |
|---|---|
| `CC(C)Cc1ncc2c(n1)CN(C(=O)Cn1c(=O)oc3ccccc31)C2` | -2.397% |
| `Cc1occc1C(=O)N1CCC2(CCN(Cc3nccs3)CC2)C1` | 7.525% |
| `COc1cc(CNC(=O)C(C)SC)cc(Br)c1OC` (centres unmarked) | 12.56% |
| `CN(C)S(=O)(=O)N1CCC(Cn2cccn2)CC1` | -13.47% |
| `CS(=O)(=O)c1ccc(C(=O)NCc2nc3cc(F)ccc3[nH]2)cc1` | 9.808% |
| `CC(C)=CCN1C[C@@H](C(=O)O)C[C@H](C(=O)Nc2ccc(C)nc2)C1` | -13.67% |
| `CCc1nc(CNC2CCN(S(C)(=O)=O)CC2)cs1` | -14.09% |
| `COc1ccc(C(=O)N(C)Cc2nnc3ccccn23)c(OC)c1OC` | 6.928% |